# The other results are listed elsewhere or left out.
# What was measured:
# Experiment in all cases: protein microarray (ProtoArray v5.0), streptavidin-Alexa Fluor 647
# Details in all cases: 3'-biotin; 20 mM Tris (pH 7.5), 5 mM MgCl2, 100 mM KCl, 0.1% Tween-20, A/T-rich and random oligonucleotide blockers; temperature not stated; high values mean tight binding
# GNAQ (human) = system: GNAQ (human)
# GNB5 (human) = system: GNB5 (human)
# GNE (human) = system: GNE (human)
# GNG13 (human) = system: GNG13 (human)
# GNG4 (human) = system: GNG4 (human)
# GNGT1 (human) = system: GNGT1 (human)
# GNMT (human) = system: GNMT (human)
# GNPAT (human) = system: GNPAT (human)
# GNPTAB (human) = system: GNPTAB (human)
# GOLPH2 (human) = system: GOLPH2 (human)
sequence,measurement,setting,value
GGGAGGCTGAGGCAGG [G4-1 biotinylated (PQS2)],binding signal,GNAQ (human),-0.32 z-score
same,binding signal,GNB5 (human),-0.325 z-score
same,binding signal,GNE (human),-0.299 z-score
same,binding signal,GNG13 (human),-0.368 z-score
same,binding signal,GNG4 (human),-0.341 z-score
same,binding signal,GNGT1 (human),-0.342 z-score
same,binding signal,GNMT (human),-0.34 z-score
same,binding signal,GNPAT (human),-0.306 z-score
same,binding signal,GNPTAB (human),-0.337 z-score
same,binding signal,GOLPH2 (human),-0.346 z-score
